The values below come from paper PMC7819943, “Rice protein-binding microarrays: a tool to detect cis-acting elements near promoter regions in rice”.

By UniProt entry, the sequences of proteins in these tests, tags left out.
UniProt Q0JBA9, entry or part of it: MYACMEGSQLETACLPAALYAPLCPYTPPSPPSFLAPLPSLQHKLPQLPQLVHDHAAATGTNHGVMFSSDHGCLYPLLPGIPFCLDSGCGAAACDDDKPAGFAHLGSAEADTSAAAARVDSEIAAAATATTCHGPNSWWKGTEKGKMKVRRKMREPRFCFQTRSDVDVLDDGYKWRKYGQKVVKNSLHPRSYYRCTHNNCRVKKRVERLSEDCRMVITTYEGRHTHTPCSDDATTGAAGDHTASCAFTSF

This is one part of the list.

The target of this assay is OsWRKY34 (Oryza sativa, UniProt Q0JBA9 1-250). In words: protein-binding microarray (RPBM); PBS, 2% BSA, 51.3 ng/ul salmon testes DNA, 50 uM zinc acetate, 200 nM TF, 25 C, 1 h; high values mean tight binding. Conditions: protein: recombinant; tags: N-terminal polyhistidine and DsRed monomer fusion (pET32a); label: CyDye5-dUTP incorporated in the synthesized complementary strand; 3' TTTTT single-stranded linker to array surface; dsDNA, one strand shown. The method, boiled down: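 The binding signal for each feature is its fluorescence intensity in arbitrary units. An Axon 4000B scanner was used to read a custom Agilent array that had been made double-stranded with Cy5-dUTP primer extension, blocked with 2% BSA, incubated at 25 °C for 1 h with 200 nM protein in PBS, 2% BSA, salmon testes DNA and 50 µM zinc acetate, and washed. The protein was an N-terminal polyhistidine–DsRed transcription factor fusion from E. coli BL21-CodonPlus, purified on Ni–NTA.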
On to “TTTCCGATTATCCTTCATCGCTAAACTCGACTTGCTTTGACGGAGTCACCTAGTGCAG”, for which the binding signal is 10200 fluorescence intensity (a.u.).
Consider “TGGTTTTGTTGTTTCAGGTTTAGGAATTCAGGTTGATGAACGGAGTCACCTAGTGCAG”, for which the binding signal is 10700 fluorescence intensity (a.u.).
To “GCACCGCACATCCATGCTAGGTTTTCATACCGGTCCATAACGGAGTCACCTAGTGCAG” belongs 8360 fluorescence intensity (a.u.); to “TGTTTTTTTACCCGTTTTATTTGCTTTACTCGTGCAAATCCGGAGTCACCTAGTGCAG”, 12700 fluorescence intensity (a.u.).
To “AAAGAGGAGGGTGTAATTTTTTCTTCTATTTATAATTTCCCGGAGTCACCTAGTGCAG” belongs 9930 fluorescence intensity (a.u.); to “CCCACCGCTCCTCCGCGCCACGCTTCCTCGCCGCGCGCGCCGGAGTCACCTAGTGCAG”, 8390 fluorescence intensity (a.u.).
With “ACGAATCAGCATATATAGTGGACCATTTCTCAGTTAGCTCCGGAGTCACCTAGTGCAG” the figure was 8130 fluorescence intensity (a.u.); with “GACGAAGCCAAGTTGGCCCTGTAGCTGACCCATGCTGTGACGGAGTCACCTAGTGCAG”, 9030 fluorescence intensity (a.u.).
Consider “CTCGCATTTCCCAGCTCGGATCCTCTTCTGACTTCTCTCTCGGAGTCACCTAGTGCAG”, for which the binding signal was 8710 fluorescence intensity (a.u.).
To “TATTTTTCATTGAAGTTTATTTTTCAGCCTTTGTTTTTAGCGGAGTCACCTAGTGCAG” belongs 8350 fluorescence intensity (a.u.); to “CTCTTTCTTTCTTTCTTGCCGTTTTTCCTCTCTGCTTGTACGGAGTCACCTAGTGCAG”, 11700 fluorescence intensity (a.u.); to “ATTTTTCTGGTTATTTATGTACAAGTAGCCTCTATATGTTCGGAGTCACCTAGTGCAG”, 10300 fluorescence intensity (a.u.).
With “CACATTTTTTCACCTACCACACCTCTACCCTAACACAGCACGGAGTCACCTAGTGCAG” the figure was 8430 fluorescence intensity (a.u.); with “AATCCGTACATAATCCTTCAGCCGTATAGCAACTCGTTTCCGGAGTCACCTAGTGCAG”, 8320 fluorescence intensity (a.u.); with “TTTCCACACCGTCCTCAGTAAACAACCGATACCATCCTTACGGAGTCACCTAGTGCAG”, 8430 fluorescence intensity (a.u.).
With “CGTTTTTTTTTTGCAATTTTTTCCATGGCTATTGCTAACCCGGAGTCACCTAGTGCAG” the figure was 12200 fluorescence intensity (a.u.); with “CGCACCATCTCTTTTCTCCTCTTCTCTGTTATCATCGTATCGGAGTCACCTAGTGCAG”, 8860 fluorescence intensity (a.u.).
Regarding “GTTAGATCATTGCACTCCGTCTCTTCGTCTCCTCGAGCGCCGGAGTCACCTAGTGCAG”, the binding signal is 8230 fluorescence intensity (a.u.).
Turning to “AAATTAATCTATGTTACCAAATTGTTTTTCATATTTTTTTCGGAGTCACCTAGTGCAG”, the binding signal is 8220 fluorescence intensity (a.u.).
With “ATGGTTGGTTCTTGTGTGTCCCTAAGCGTGAAAAAAATATCGGAGTCACCTAGTGCAG” the figure was 11600 fluorescence intensity (a.u.); with “CTCTCCCCTCTCCCCGAGACAACCAATCGCCACCGCACACCGGAGTCACCTAGTGCAG”, 8290 fluorescence intensity (a.u.).
With “CATAGAAATATCTTCATCTCAGTTCGTTGTTTTTTTTATTCGGAGTCACCTAGTGCAG” the figure was 10500 fluorescence intensity (a.u.).
In the case of “GAGCACCACGCGAACACTAGCAATAGTTCTTTCTTCTTTTCGGAGTCACCTAGTGCAG”, the binding signal was 8400 fluorescence intensity (a.u.).
With “ACAAGTTGACTCGTGACGACGGCGACTCCATCCGACCCACCGGAGTCACCTAGTGCAG” the figure was 8620 fluorescence intensity (a.u.); with “GAACCTGTCTACATCGGCCGTGTCTCGTGCACTTGCTCTCCGGAGTCACCTAGTGCAG”, 10700 fluorescence intensity (a.u.); with “TGTGTTTTTCCTATGCTCTATCCAAACGATTATTCCTACCCGGAGTCACCTAGTGCAG”, 8650 fluorescence intensity (a.u.).
To “TCCATCATCGTCGTCTCTGTGTGTGTCTGTGTGTGTGTGTCGGAGTCACCTAGTGCAG” belongs 17900 fluorescence intensity (a.u.); to “AATGATGTTGTTGACTTTTAAAATAACGTATGGCCGTTCACGGAGTCACCTAGTGCAG”, 8770 fluorescence intensity (a.u.); to “ATGTTCAATTTAATTGCTGTTTGTTACCTTTTGCATGGAGCGGAGTCACCTAGTGCAG”, 8270 fluorescence intensity (a.u.).
As to “TTTAGCTGACCTGGCCTGATGTAGGGTGTTTAATTTTTCTCGGAGTCACCTAGTGCAG”, the binding signal was 8500 fluorescence intensity (a.u.).
With “ACATTTCCGCATCATAGTTCATCCCGCTCCTCGTCTCCTCCGGAGTCACCTAGTGCAG” the figure was 10700 fluorescence intensity (a.u.); with “TCTCCGTCTTTTTTATGGATTTTGAACCTACCATTCTCGTCGGAGTCACCTAGTGCAG”, 9370 fluorescence intensity (a.u.); with “TGTTCTCTTCCCCGTGCTGTTCGAATGAGTCTCCGTATTACGGAGTCACCTAGTGCAG”, 9260 fluorescence intensity (a.u.).
To “CCTCTCCGTCTTCCCAGATCTGCTTCTTGCCCACCATTCCCGGAGTCACCTAGTGCAG” belongs 11000 fluorescence intensity (a.u.).
To “TGTTACTCCGTATTCTGTTTCTTTGATTCGGCCTGTCAGCCGGAGTCACCTAGTGCAG” belongs 11400 fluorescence intensity (a.u.).
Turning to “ATGCACTTCCACATCTTTTCGCTTATACTTATACTTATCACGGAGTCACCTAGTGCAG”, the binding signal is 10500 fluorescence intensity (a.u.).
With “ATGTCCAATTAAGATCCACCAGTACCTTTTTAGCGTATTTCGGAGTCACCTAGTGCAG” the figure was 8890 fluorescence intensity (a.u.).
“GTCGAGGCGGCGGCGGCGGGGCGCGGAGTGAGGTGGGTGCCGGAGTCACCTAGTGCAG”: the binding signal was 8640 fluorescence intensity (a.u.).
Consider “TTTTTTATACTTCTCTCCACTTCGCACCAAACTATTTTATCGGAGTCACCTAGTGCAG”, for which the binding signal was 8280 fluorescence intensity (a.u.).
To “TCTCATATTTATATCCCATCAACTTGCAACTCTTCATTCCCGGAGTCACCTAGTGCAG” belongs 8850 fluorescence intensity (a.u.); to “ATACTCGAGATGGGCGCTTGGTACTTGCATGTTTCCATTCCGGAGTCACCTAGTGCAG”, 8680 fluorescence intensity (a.u.).
With “CTCTGTTTCCTAATCCTCCATTTTTCATCATATTCCTGCACGGAGTCACCTAGTGCAG” the figure was 8630 fluorescence intensity (a.u.).
